Test results reported in patent publication US20190322720A1.
No constants are given. Whether binding was seen depends on the method and setting. Some results given as binding are weak or reduced against the parent protein; the word gives no strength.

Chains of the proteins cited; added tags and fusions are not shown. Lines headed by an entry give the natural chain unless they say otherwise; changes in a name come on top.
UniProt P40199: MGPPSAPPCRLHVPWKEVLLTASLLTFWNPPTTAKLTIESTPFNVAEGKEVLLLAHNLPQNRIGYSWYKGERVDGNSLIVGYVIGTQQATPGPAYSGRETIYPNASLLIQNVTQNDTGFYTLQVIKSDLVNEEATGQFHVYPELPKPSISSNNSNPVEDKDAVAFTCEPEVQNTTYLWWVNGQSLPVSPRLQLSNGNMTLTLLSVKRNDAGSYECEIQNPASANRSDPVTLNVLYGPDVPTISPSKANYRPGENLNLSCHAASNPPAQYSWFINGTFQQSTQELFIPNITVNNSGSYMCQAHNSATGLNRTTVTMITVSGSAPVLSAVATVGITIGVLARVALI
UniProt P31997: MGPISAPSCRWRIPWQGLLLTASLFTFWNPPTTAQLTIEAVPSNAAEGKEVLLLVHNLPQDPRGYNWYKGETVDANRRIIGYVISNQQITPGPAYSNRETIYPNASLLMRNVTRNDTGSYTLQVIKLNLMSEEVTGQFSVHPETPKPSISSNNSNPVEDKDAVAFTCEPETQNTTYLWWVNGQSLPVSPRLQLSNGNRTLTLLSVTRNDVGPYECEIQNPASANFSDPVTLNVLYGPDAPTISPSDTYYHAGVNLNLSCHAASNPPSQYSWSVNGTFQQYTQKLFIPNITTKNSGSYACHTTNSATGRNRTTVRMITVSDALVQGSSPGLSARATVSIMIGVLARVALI
UniProt P13688: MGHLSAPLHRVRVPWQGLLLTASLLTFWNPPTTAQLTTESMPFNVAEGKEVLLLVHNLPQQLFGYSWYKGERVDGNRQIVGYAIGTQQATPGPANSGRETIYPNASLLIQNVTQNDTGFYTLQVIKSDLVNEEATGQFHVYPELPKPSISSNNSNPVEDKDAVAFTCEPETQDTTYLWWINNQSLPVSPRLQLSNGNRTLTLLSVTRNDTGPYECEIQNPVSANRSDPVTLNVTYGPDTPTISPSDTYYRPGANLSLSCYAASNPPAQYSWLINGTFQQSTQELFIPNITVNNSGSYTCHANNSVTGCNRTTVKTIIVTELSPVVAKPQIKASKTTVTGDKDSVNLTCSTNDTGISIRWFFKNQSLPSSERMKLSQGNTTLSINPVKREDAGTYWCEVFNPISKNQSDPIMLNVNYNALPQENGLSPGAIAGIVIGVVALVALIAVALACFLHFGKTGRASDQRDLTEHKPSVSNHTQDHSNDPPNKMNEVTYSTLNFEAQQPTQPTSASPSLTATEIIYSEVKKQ

What was measured:
[1] = target: CEACAM6 residues 34-326 (human) (UniProt P40199); assay: binding to expressed truncation construct
[2] = target: CEACAM6 residues 201-319 (human) (UniProt P40199); assay: binding to expressed truncation construct
[3] = target: CEACAM6 residues 149-319 (human) (UniProt P40199); assay: binding to expressed truncation construct
[4] = target: CEACAM6 residues 34-311 (human) (UniProt P40199); assay: binding to expressed truncation construct
[5] = target: CEACAM6 residues 34-313 (human) (UniProt P40199); assay: binding to expressed truncation construct
[6] = target: CEACAM6 residues 34-317 (human) (UniProt P40199); assay: binding to expressed truncation construct
[7] = target: CEACAM6 residues 34-321 (human) (UniProt P40199); assay: binding to expressed truncation construct
[8] = target: CEACAM6 residues 34-315 (human) (UniProt P40199); assay: binding to expressed truncation construct
[9] = target: CEACAM6 residues 34-319 (human) (UniProt P40199); assay: binding to expressed truncation construct
[10] = target: CEACAM6 residues 34-320 (human) (UniProt P40199); assay: binding to expressed truncation construct
[11] = target: CEACAM6 residues 191-319 (human) (UniProt P40199); assay: binding to expressed truncation construct
[12] = target: CEACAM8 conversion mutant 300 His→Gln, 301Thr→Ala, 302Thr→His (Homo sapiens (Human)) (UniProt P31997); assay: conversion mutagenesis
[13] = target: CEACAM1 conversion mutant 300His→Gln, 302Asn→His (Homo sapiens (Human)) (UniProt P13688); assay: conversion mutagenesis

Measured: binding

B1: 16C3 antibody (antibody, V domains shown)
VL: LMTQSPASLSASVGETVTITCGASENIYGALNWYQRKQGKSPQLLIYGASNLADGMSSRFSGSGSGRQYSLKISSLHPDDVATYYCQNVLSSPYTFGGGTKLEIKK
V domain: LEESGPEVVRPGVSVKISCKGSGYTFTDYAMHWVKQSHAKSLEWIGLISTYSGDTKYNQNFKGKATMTVDKSSNTAYMELARLTSEDSAIYYCARGDYSGSRYWFAYWGQGTTVTR
binds: all assays above
